Data taken from article PMC5241803, “Structural basis for the recognition and degradation of host TRIM proteins by Salmonella effector SopA” (Nature Communications, 2017).
Results are given in words; binding and its absence hold for the method and conditions named. In cells and extracts the contact can be indirect. Here binding means that the protein was enriched with, or labelled near, the bait; the list need not be complete.

Sequences of proteins named here, by UniProt entry; tags and fusion partners are left off.
UniProt Q8ZNR3: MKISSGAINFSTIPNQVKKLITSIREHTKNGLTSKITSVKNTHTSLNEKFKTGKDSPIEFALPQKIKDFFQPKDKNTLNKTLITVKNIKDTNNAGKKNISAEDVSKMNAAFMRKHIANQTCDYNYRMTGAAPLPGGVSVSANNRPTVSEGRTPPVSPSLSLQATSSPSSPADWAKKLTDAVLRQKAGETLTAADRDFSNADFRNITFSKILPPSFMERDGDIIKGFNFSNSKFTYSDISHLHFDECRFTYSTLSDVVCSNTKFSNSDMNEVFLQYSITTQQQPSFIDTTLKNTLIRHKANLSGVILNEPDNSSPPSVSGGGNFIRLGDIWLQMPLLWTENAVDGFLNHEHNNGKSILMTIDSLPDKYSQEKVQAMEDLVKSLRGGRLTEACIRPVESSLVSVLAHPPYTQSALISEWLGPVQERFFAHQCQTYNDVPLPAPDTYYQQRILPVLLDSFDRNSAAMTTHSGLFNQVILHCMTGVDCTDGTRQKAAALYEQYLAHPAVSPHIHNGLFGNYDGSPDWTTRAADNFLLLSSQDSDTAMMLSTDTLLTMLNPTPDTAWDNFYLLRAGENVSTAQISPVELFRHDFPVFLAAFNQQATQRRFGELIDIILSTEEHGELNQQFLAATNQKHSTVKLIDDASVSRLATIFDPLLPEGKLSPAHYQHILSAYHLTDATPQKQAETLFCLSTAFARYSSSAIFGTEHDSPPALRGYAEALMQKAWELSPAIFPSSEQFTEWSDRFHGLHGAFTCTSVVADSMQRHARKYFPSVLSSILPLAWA

B1: MBP-TRIM56 (natural protein, human, UniProt Q9BRZ2 1-755, looked up)
chain: MVSHGSSPSLLEALSSDFLACKICLEQLRAPKTLPCLHTYCQDCLAQLADGGRVRCPECRETVPVPPEGVASFKTNFFVNGLLDLVKARACGDLRAGKPACALCPLVGGTSTGGPATARCLDCADDLCQACADGHRCTRQTHTHRVVDLVGYRAGWYDEEARERQAAQCPQHPGEALRFLCQPCSQLLCRECRLDPHLDHPCLPLAEAVRARRPGLEGLLAGVDNNLVELEAARRVEKEALARLREQAARVGTQVEEAAEGVLRALLAQKQEVLGQLRAHVEAAEEAARERLAELEGREQVARAAAAFARRVLSLGREAEILSLEGAIAQRLRQLQGCPWAPGPAPCLLPQLELHPGLLDKNCHLLRLSFEEQQPQKDGGKDGAGTQGGEESQSRREDEPKTERQGGVQPQAGDGAQTPKEEKAQTTREEGAQTLEEDRAQTPHEDGGPQPHRGGRPNKKKKFKGRLKSISREPSPALGPNLDGSGLLPRPIFYCSFPTRMPGDKRSPRITGLCPFGPREILVADEQNRALKRFSLNGDYKGTVPVPEGCSPCSVAALQSAVAFSASARLYLINPNGEVQWRRALSLSQASHAVAALPSGDRVAVSVAGHVEVYNMEGSLATRFIPGGKASRGLRALVFLTTSPQGHFVGSDWQQNSVVICDGLGQVVGEYKGPGLHGCQPGSVSVDKKGYIFLTLREVNKVVILDPKGSLLGDFLTAYHGLEKPRVTTMVDGRYLVVSLSNGTIHIFRVRSPDS
notes: TRIM56, human, full length, in pMAL-C2X; also called recombinant TRIM56; not shown: MBP, N-terminal, kept
B2: endogenous TRIM65 (protein, UniProt Q6PJ69 1-517)
chain: MAAQLLEEKLTCAICLGLYQDPVTLPCGHNFCGACIRDWWDRCGKACPECREPFPDGAELRRNVALSGVLEVVRAGPARDPGPDPGPGPDPAARCPRHGRPLELFCRTEGRCVCSVCTVRECRLHERALLDAERLKREAQLRASLEVTQQQATQAEGQLLELRKQSSQIQNSACILASWVSGKFSSLLQALEIQHTTALRSIEVAKTQALAQARDEEQRLRVHLEAVARHGCRIRELLEQVDEQTFLQESQLLQPPGPLGPLTPLQWDEDQQLGDLKQLLSRLCGLLLEEGSHPGAPAKPVDLAPVEAPGPLAPVPSTVCPLRRKLWQNYRNLTFDPVSANRHFYLSRQDQQVKHCRQSRGPGGPGSFELWQVQCAQSFQAGHHYWEVRASDHSVTLGVSYPQLPRCRLGPHTDNIGRGPCSWGLCVQEDSLQAWHNGEAQRLPGVSGRLLGMDLDLASGCLTFYSLEPQTQPLYTFHALFNQPLTPVFWLLEGRTLTLCHQPGAVFPLGPQEEVLS

What was measured:
[1] = target: GFP-SopA (S. Typhimurium SL1344) (UniProt Q8ZNR3); assay: affinity purification with mass spectrometry
[2] = target: SopA–HA (S. Typhimurium SL1344) (UniProt Q8ZNR3); assay: affinity purification with mass spectrometry

Binder | binding [1] | binding [2]
B1 | binds | binds
B2 | binds | binds
